Results as given in paper PMC11220046.
These are yes or no findings as the source states them, for the method shown. In cells and extracts the contact can be indirect. Some entries that bind do so weakly or less than the wild type.

Sequences of proteins named here, by UniProt entry; tags and fusion partners are left off. Residues count along the entry.
UniProt Q9BXM7, residues 78-581: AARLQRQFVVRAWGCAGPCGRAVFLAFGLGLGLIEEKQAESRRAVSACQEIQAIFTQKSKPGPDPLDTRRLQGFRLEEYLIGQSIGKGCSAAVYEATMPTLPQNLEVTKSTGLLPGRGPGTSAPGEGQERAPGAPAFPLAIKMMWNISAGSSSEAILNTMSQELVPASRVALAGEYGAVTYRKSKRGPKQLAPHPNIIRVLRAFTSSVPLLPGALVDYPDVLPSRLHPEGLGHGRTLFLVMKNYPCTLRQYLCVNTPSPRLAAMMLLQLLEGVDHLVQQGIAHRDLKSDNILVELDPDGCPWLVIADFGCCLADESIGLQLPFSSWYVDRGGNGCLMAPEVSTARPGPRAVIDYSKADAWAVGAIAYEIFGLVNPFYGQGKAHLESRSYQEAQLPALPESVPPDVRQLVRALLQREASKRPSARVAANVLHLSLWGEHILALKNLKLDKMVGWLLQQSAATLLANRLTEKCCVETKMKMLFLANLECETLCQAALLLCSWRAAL

Target: T1, Macrophage migration inhibitory factor (human (endogenous in HK-2)) (UniProt P14174)
T1 sequence: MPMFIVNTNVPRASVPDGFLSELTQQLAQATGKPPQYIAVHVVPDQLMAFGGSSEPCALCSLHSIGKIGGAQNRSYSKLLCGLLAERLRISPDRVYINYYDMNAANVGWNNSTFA
Experiment: co-IP; antibody (or IgG) bound to protein A+G magnetic beads for 1 h at room temperature, lysate added overnight at 4 degrees Celsius, eluted in SDS loading buffer, immunoblot; HK-2 cell groups with LPS, ISO-1, OE-MIF or KD-MIF

binding: binds
Substance: PTEN-induced putative kinase 1 (from UniProt Q9BXM7 78-581)
